# Results as given in PubChem BioAssay AID588590 (National Center for Advancing Translational Sciences (NCATS), 2011).
# Chains of the proteins cited; added tags and fusions are not shown. Lines headed by an entry give the natural chain unless they say otherwise; changes in a name come on top.
# UniProt Q9UNA4: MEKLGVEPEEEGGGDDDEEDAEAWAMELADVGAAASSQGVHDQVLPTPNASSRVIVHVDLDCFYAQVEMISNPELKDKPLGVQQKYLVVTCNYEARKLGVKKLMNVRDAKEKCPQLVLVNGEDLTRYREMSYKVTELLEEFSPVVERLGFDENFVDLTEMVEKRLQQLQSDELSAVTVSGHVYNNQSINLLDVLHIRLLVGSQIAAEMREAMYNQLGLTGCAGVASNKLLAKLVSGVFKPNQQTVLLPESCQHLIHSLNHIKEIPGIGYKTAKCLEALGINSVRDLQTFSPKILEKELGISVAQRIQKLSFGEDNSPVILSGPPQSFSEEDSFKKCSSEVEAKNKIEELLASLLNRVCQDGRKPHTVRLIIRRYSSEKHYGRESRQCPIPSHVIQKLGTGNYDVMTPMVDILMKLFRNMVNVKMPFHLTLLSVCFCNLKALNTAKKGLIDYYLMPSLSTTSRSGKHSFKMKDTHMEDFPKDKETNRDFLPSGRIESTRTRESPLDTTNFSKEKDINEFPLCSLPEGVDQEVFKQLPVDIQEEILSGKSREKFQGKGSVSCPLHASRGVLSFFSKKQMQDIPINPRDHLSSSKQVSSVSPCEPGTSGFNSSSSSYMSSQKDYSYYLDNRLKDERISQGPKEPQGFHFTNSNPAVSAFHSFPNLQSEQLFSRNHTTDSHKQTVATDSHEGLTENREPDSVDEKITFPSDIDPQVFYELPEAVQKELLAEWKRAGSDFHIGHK
# In all, about 390,000 compounds went through this assay and about 4,000 (1%) were called active. Inconclusive results, whose numbers are uncertain, are shown with a selection of clear calls. Calls come from the whole dose curve; as a rule, active = well fitted inhibition curve with a large enough effect; inconclusive = small, poorly fitted or top-dose-only effect, or another doubt; inactive = no such curve, though single readings can be large or run the other way. Potencies beside an inconclusive call are fits to weak or partial responses and may not hold up.
# Target: DNA polymerase iota (Homo sapiens) (UniProt Q9UNA4)
# Assay: qHTS for Inhibitors of Polymerase Iota
# Conditions: Pol iota fluorescent replication assay, 10 min; series mostly up to 115 µM; activity, negative = inhibition: at the top concentration
# In short: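 Pol iota at 10 nM preincubated 15 min with compounds at room temperature; reaction started with fluorescent substrate, 50 nM final. Fluorescence read kinetically at 0 and 10 min; buffer-only wells as negative control.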
# Potency is the fitted concentration of half-maximal effect.
SMILES,"activity, negative = inhibition",Potency
O=C(c1ccc2c(c1)N(Cc1cccc(Cl)c1)C(=O)c1ccccc1S2=O)N1CCC(Cc2ccccc2)CC1 (stereo not drawn),inactive: 14.8%,
Nc1ccc(Oc2ncccn2)cc1,,"inconclusive: 3.55 µM [inhibitor, full curve, poor fit]"
Cc1ccc(S(=O)(=O)N2CN(Cc3ccco3)c3nc4ccccc4nc32)cc1C,,"inconclusive: 3.98 µM [inhibitor, partial curve, poor fit]"
Cc1ccc(-c2ccc([C@H]3[C@H]4C=CC[C@@H](C)[C@@H]4C(=O)N3Cc3ccccc3)c(F)c2)cc1,,"inconclusive: 12.6 µM [inhibitor, partial curve, poor fit]"
CN(C)c1ccc(C=c2c3ccccc3n3c2cc(-c2ccc(Cl)cc2)[n+]3C)cc1,,"inconclusive: 79.4 µM [inhibitor, partial curve]"
CCc1nnc(NC(=O)[C@@H]2CCCN2C(=O)c2cccs2)s1,,"inconclusive: 89.1 µM [inhibitor, single point]"
O=C1CCCC(=O)N1c1ccc(O)cc1,,"inconclusive: 28.2 µM [inhibitor, single point]"
CCOC(=O)/C(C#N)=N/Nc1c(S(=O)(=O)Cc2ccco2)csc1C(=O)OC,,"inconclusive: 14.1 µM [inhibitor, full curve, poor fit]"
CCc1ccc(C2=NN(CCC(=O)NC3CCCCCC3)C(=O)CC2)cc1,,"inconclusive: 50.1 µM [inhibitor, single point]"
Cc1ccc(C)c(SCC(=O)OC/C(O)=C(\C#N)c2nc3ccccc3[nH]2)c1,,"inconclusive: 44.7 µM [inhibitor, partial curve]"
Oc1c(C(c2ccccc2)N2CCCC2)sc2nc(-c3ccco3)nn12 (stereo not drawn),,"inconclusive: 31.6 µM [inhibitor, partial curve, poor fit]"
CCOc1ccccc1CNC(=O)Cn1nc(C)c2c(C)n(-c3ccc(C)cc3)nc2c1=O,,"inconclusive: 39.8 µM [inhibitor, single point]"
Cc1cc(=O)oc2cc(OCC(=O)NC3CC(C)(C)NC(C)(C)C3)c(Cl)cc12,,"inconclusive: 39.8 µM [inhibitor, partial curve, poor fit]"
O=[N+]([O-])c1ccc(NNC(=S)Nc2ccc(F)cc2)cc1,,"inconclusive: 28.2 µM [inhibitor, single point]"
Cc1ccc(N2C(=O)c3cccc4c(N)ccc(c34)C2=O)c2cccnc12,,active: 79.4 µM
O=C(NCc1cccnc1)c1ccc([N+](=O)[O-])o1,,"inconclusive: 39.8 µM [inhibitor, single point]"
O=C(Nc1cc(S(=O)(=O)N2CCOCC2)ccc1O)c1ccc(NS(=O)(=O)c2ccc(Cl)s2)cc1,inactive: -19.6%,
CCOc1ccc(NC(=O)Cn2nc3c(cc2=O)CC(C)CC3)cc1 (stereo not drawn),inactive: -0.278%,
CC(=O)c1c(C)n(-c2ccccc2)c2ccc(OCC(O)CN3CCOCC3)cc12 (stereo not drawn),,"inconclusive: 100 µM [inhibitor, partial curve, poor fit]"
CCOC(=O)c1ccccc1NC(=O)N1CCC(CN2CCOCC2)CC1,inactive: -21.5%,
O=C(/C=C/c1ccco1)OCC(=O)c1cccc([N+](=O)[O-])c1,,"inconclusive: 35.5 µM [inhibitor, single point]"

# 15 successive records already listed:
SMILES,"activity, negative = inhibition",Potency
O=C1CCCC(=O)N1c1ccc(O)cc1,,"inconclusive: 28.2 µM [inhibitor, single point]"
CCOC(=O)/C(C#N)=N/Nc1c(S(=O)(=O)Cc2ccco2)csc1C(=O)OC,,"inconclusive: 14.1 µM [inhibitor, full curve, poor fit]"
CCc1ccc(C2=NN(CCC(=O)NC3CCCCCC3)C(=O)CC2)cc1,,"inconclusive: 50.1 µM [inhibitor, single point]"
Cc1ccc(C)c(SCC(=O)OC/C(O)=C(\C#N)c2nc3ccccc3[nH]2)c1,,"inconclusive: 44.7 µM [inhibitor, partial curve]"
Oc1c(C(c2ccccc2)N2CCCC2)sc2nc(-c3ccco3)nn12 (stereo not drawn),,"inconclusive: 31.6 µM [inhibitor, partial curve, poor fit]"
CCOc1ccccc1CNC(=O)Cn1nc(C)c2c(C)n(-c3ccc(C)cc3)nc2c1=O,,"inconclusive: 39.8 µM [inhibitor, single point]"
Cc1cc(=O)oc2cc(OCC(=O)NC3CC(C)(C)NC(C)(C)C3)c(Cl)cc12,,"inconclusive: 39.8 µM [inhibitor, partial curve, poor fit]"
O=[N+]([O-])c1ccc(NNC(=S)Nc2ccc(F)cc2)cc1,,"inconclusive: 28.2 µM [inhibitor, single point]"
Cc1ccc(N2C(=O)c3cccc4c(N)ccc(c34)C2=O)c2cccnc12,,active: 79.4 µM
O=C(NCc1cccnc1)c1ccc([N+](=O)[O-])o1,,"inconclusive: 39.8 µM [inhibitor, single point]"
O=C(Nc1cc(S(=O)(=O)N2CCOCC2)ccc1O)c1ccc(NS(=O)(=O)c2ccc(Cl)s2)cc1,inactive: -19.6%,
CCOc1ccc(NC(=O)Cn2nc3c(cc2=O)CC(C)CC3)cc1 (stereo not drawn),inactive: -0.278%,
CC(=O)c1c(C)n(-c2ccccc2)c2ccc(OCC(O)CN3CCOCC3)cc12 (stereo not drawn),,"inconclusive: 100 µM [inhibitor, partial curve, poor fit]"
CCOC(=O)c1ccccc1NC(=O)N1CCC(CN2CCOCC2)CC1,inactive: -21.5%,
O=C(/C=C/c1ccco1)OCC(=O)c1cccc([N+](=O)[O-])c1,,"inconclusive: 35.5 µM [inhibitor, single point]"

# The listing continues:

SMILES,"activity, negative = inhibition",Potency
Cc1ccc2c(c1)cc1c(=O)n(Cc3ccccc3Cl)nc(C)n12,inactive: 26%,
CCn1c(=O)c2sccc2n2c(CCC(=O)Nc3ccc(F)cc3)nnc12,inactive: 37.1%,
Cc1ccc2c(C)c(C(=O)N(Cc3ccc(N(C)C)cc3)Cc3ccco3)oc2c1C,inactive: -16.7%,
CCOC(=O)c1c(N)n(-c2ccc(CC)cc2)c2nc3ccccc3nc12,inactive: 92.6%,
O=C(O)CSc1nc(-c2ccc(Cl)cc2)nc2c1oc1ccccc12,inactive: 7.43%,
O=C1c2ccccc2S(=O)(=O)c2cc(C(=O)N3CCC(N4CCCC4)CC3)ccc21,,"inconclusive: 56.2 µM [inhibitor, partial curve, poor fit]"
N#Cc1ccsc1NC(=O)COC(=O)CCCSc1nc2ccccc2s1,,"inconclusive: 2 µM [inhibitor, partial curve, poor fit]"
CCOc1ccccc1N1CCN(C2=C(NS(=O)(=O)c3cccs3)C(=O)c3ccccc3C2=O)CC1,,"inconclusive: 11.2 µM [inhibitor, partial curve, poor fit]"
CC(=O)N1CCOc2cc(S(=O)(=O)NCc3ccccc3Cl)c(Cl)cc21,,"inconclusive: 56.2 µM [inhibitor, partial curve, poor fit]"
O=C(CNC(=O)c1ccccc1)OCC(=O)c1cccc2ccccc12,,"inconclusive: 89.1 µM [inhibitor, partial curve, poor fit]"
Cc1nc(-c2ccc(F)cc2)sc1CCNC(=O)c1cccs1,,"inconclusive: 100 µM [inhibitor, single point]"
O=C(CSc1ccccc1F)NC(=O)NCc1ccco1,,"inconclusive: 56.2 µM [inhibitor, partial curve, poor fit]"
Cc1ccc(C)c(NC(=O)Cn2c(SCC(=O)NCc3ccccc3)nc3ccccc32)c1,,"inconclusive: 100 µM [inhibitor, partial curve, poor fit]"
Cc1cc(C(=O)CSc2nn3c(=O)c(C(C)(C)C)nnc3s2)c(C)n1C1CC1,,active: 79.4 µM
CC(C)(C)NC(=O)CSC(=Nc1ccccc1F)NC#N,,"inconclusive: 25.1 µM [inhibitor, single point]"
N#C/C(=C\c1cccs1)c1nc2ccccc2[nH]1,inactive: 40.4%,
COc1ccccc1CNCc1cc(OC)c(OC)c(OC)c1,inactive: 35.1%,
Cc1cc(C)nc(SCC(=O)NC2=NN=C(c3ccc(Br)cc3)CS2)n1,,"inconclusive: 10 µM [inhibitor, full curve, poor fit]"
O=C1CCCCN1CCC(=O)N1CCCC(Nc2ccccc2)C1 (stereo not drawn),,"inconclusive: 50.1 µM [inhibitor, partial curve, poor fit]"
Cc1ccsc1/C=N/NC(=O)C1CC(=O)N(c2ccc(F)cc2)C1 (stereo not drawn),inactive: 15.6%,
CC(=O)/C=C/c1ccc2c(c1)S(=O)(=O)N(C1CCCC1)[C@H]2CC(C)=O,,"inconclusive: 6.31 µM [inhibitor, full curve, poor fit]"

SMILES,"activity, negative = inhibition",Potency
Cc1cc(SCC(=O)OCC(=O)NC(C)c2ccccc2)c(C)cc1Br (stereo not drawn),,"inconclusive: 126 µM [inhibitor, partial curve, poor fit]"
C/C(N)=C(/C#N)C(=O)CSc1nn(-c2ccc(Cl)cc2)c(=S)s1,,"inconclusive: 50.1 µM [inhibitor, partial curve, poor fit]"
Cc1cc(C)c2cccc(N)c2n1,inactive: 68.2%,
O=C(CN1C(=O)CCn2nc(-c3ccccc3)cc21)NCc1ccccc1,inactive: 15.2%,
O=C1NCCn2ccc(=O)cc21,,"inconclusive: 22.4 µM [inhibitor, partial curve, poor fit]"
Cc1ccccc1CN1C[C@@H]2C[C@@H](c3ccc4nsnc4c3)N3CCC[C@@]23C1=O,,"inconclusive: 89.1 µM [inhibitor, single point]"
O=c1/c(=C/c2ccco2)sc2n1CN(c1ccccc1)CN=2,,"inconclusive: 25.1 µM [inhibitor, full curve, poor fit]"
C=C(c1ccccc1)c1ccc(N(C)C)cc1,,"inconclusive: 79.4 µM [inhibitor, partial curve]"
C#CCOCCOCCOCCNc1nc(N2CCN(C(=O)[C@H]([C@@H](C)CC)n3cc([C@@H](N)CO)nn3)CC2)nc(N2CCN(C(=O)[C@H]([C@@H](C)CC)n3cc([C@@H](N)CC(C)C)nn3)CC2)n1,,"inconclusive: 12.6 µM [inhibitor, partial curve]"
N#Cc1c(-c2ccccc2)nc(N2CCOCC2)[nH]c1=O,,"inconclusive: 100 µM [inhibitor, single point]"
CCOC(=O)C1=C(CNCc2ccccc2Cl)NC(=O)NC1c1ccc2c(c1)OCO2 (stereo not drawn),,"inconclusive: 10 µM [inhibitor, full curve, poor fit]"
C#CCOCCOCCOCCNc1nc(N2CCN(C(=O)CCCCCCCCCCNC(=O)[C@H]([C@@H](C)CC)n3cc(CCCCN=C(N)N)nn3)CC2)nc(N2CCN(C(=O)CCCCCCCCCCNC(=O)[C@H](CCCCN)n3cc(C)nn3)CC2)n1,,"inconclusive: 17.8 µM [inhibitor, partial curve, poor fit]"
C=CCOc1ccc(CN(C)CC(O)COc2cccc3ccccc23)cc1 (stereo not drawn),,"inconclusive: 35.5 µM [inhibitor, partial curve, poor fit]"
COc1cc2sc3ccc(-c4ccc5[nH]ccc5c4)cc3c(=O)c2cc1OC,,active: 79.4 µM
CCn1c(SCc2nc3cc(OC)c(OC)cc3c(=O)[nH]2)nc2ccccc21,,"inconclusive: 89.1 µM [inhibitor, single point]"
O=C(COC(=O)CCN=C1NS(=O)(=O)c2ccccc21)NNC(=O)c1ccc(Cl)cc1,inactive: 7.28%,
O=c1[nH]c2ccccc2c(O)c1O,,"inconclusive: 39.8 µM [inhibitor, single point]"
CCOC(=O)c1sc(NC(=O)CSc2nnc(-c3ccco3)n2CC)c(C(=O)OCC)c1C,,"inconclusive: 15.8 µM [inhibitor, full curve, poor fit]"
O=C(COC(=O)c1ccc([N+](=O)[O-])o1)NCCCc1ccccc1,,"inconclusive: 17.8 µM [inhibitor, full curve, poor fit]"
O=C(CSc1ccccc1F)OCC(=O)N1CCN(C(=O)c2ccco2)CC1,,"inconclusive: 35.5 µM [inhibitor, partial curve]"
CN(C)c1cccc2c1C(=O)c1ccccc1C2=O,inactive: 10.7%,
